Measurements as given in patent publication EP1666075A1.
Results are given in words; binding and its absence hold for the method and conditions named. A result given as binding can be weak or reduced; the word gives no strength.

Biological target: Cathepsin G (Homo sapiens (Human))
Assay: ELISA: plate-coated Cathepsin G, ACT samples added, detected with rabbit anti human ACT antibody and goat anti rabbit IgG-HRP, OPD, A490

binding: binds
B1: alpha-1-antichymotrypsin (protein, UniProt P01011 24-423, looked up)
chain: HPNSPLDEENLTQENQDRGTHVDLGLASANVDFAFSLYKQLVLKAPDKNVIFSPLSISTALAFLSLGAHNTTLTEILKGLKFNLTETSEAEIHQSFQHLLRTLNQSSDELQLSMGNAMFVKEQLSLLDRFTEDAKRLYGSEAFATDFQDSAAAKKLINDYVKNGTRGKITDLIKDLDSQTMMVLVNYIFFKAKWEMPFDPQDTHQSRFYLSKKKWVMVPMMSLHHLTIPYFRDEELSCTVVELKYTGNASALFILPDQDKMEEVEAMLLPETLKRWRDSLEFREIGELYLPKFSISRDYNLNDILLQLGIEEAFTSKADLSGITGARNLAVSQVVHKAVLDVFEEGTEASAATAVKITLLSALVETRTIVRFNRPFLMIIVPTDTQNIFFMSKVTNPKQA
